The list does not hold the whole screen: it is rich in T/C values a quarter to a half above the control, in often repeated tests (any T/C) and in doses without a T/C. Further doses and runs are listed elsewhere. T/C is the treated group as % of the vehicle group. Some entries give survivors of the animals treated and no T/C: the source holds a T/C of zero for them, seemingly a mark for toxic or unscored doses. Some survivor counts are full or nearly so, which does not show that the dose was tolerated: survival well below the control is almost never listed, so the zero probably covers shortened survival too. Survivors were counted at the toxicity check, usually on the fifth day, unless a day is given; later deaths do not show. Schedule codes are those of the source, read here as Q, the interval in days (D) or hours (H), X, the number of doses. Some schedule codes hold Z or #, which are not explained here. Where survival is the endpoint, this PubChem deposit counts one and a half times the control or more as active, and values a quarter to a half above the control carry no call in these data; other NCI protocols may use other cut-offs.
Test system: L1210 leukemia ip in BDF1 mice, survival T/C
Assay: NCI In Vivo Anticancer Drug Screen. Data for tumor model L1210 Leukemia (intraperitoneal) in B6D2F1 (BDF1) mice
Conditions: T/C endpoint: mean survival time, higher T/C = longer survival
[1] = dose: 400.0 mg/kg/injection, schedule: Q01DX009 (ip), vehicle: Klucel (hydroxypropylcellulose) (HPC)
[2] = dose: 200.0 mg/kg/injection, schedule: Q04DX002 (ip), vehicle: Klucel (hydroxypropylcellulose) (HPC)
[3] = dose: 400.0 mg/kg/injection, schedule: Q04DX002 (ip), vehicle: Klucel (hydroxypropylcellulose) (HPC)
[4] = dose: 400.0 mg/kg/injection, schedule: Q04DX003 (ip), vehicle: saline
[5] = dose: 200.0 mg/kg/injection, schedule: Q01DX001 (ip), vehicle: saline
[6] = dose: 100.0 mg/kg/injection, schedule: Q01DX009 (ip), vehicle: Klucel (hydroxypropylcellulose) (HPC)
[7] = dose: 400.0 mg/kg/injection, schedule: Q01DX001 (ip), vehicle: saline
[8] = dose: 400.0 mg/kg/injection, schedule: Q01DX009 (ip), vehicle: saline with Tween-80

SMILES: Cc1ccc(NC(=O)Oc2cccnc2)cc1NC(=O)Oc1cccnc1
- survivor count [1]: 4 of 6

SMILES: NNC(=O)CNc1cccc(Br)c1
- survivor count (dose: 100.0 mg/kg/injection, schedule: Q04DX002 (ip), vehicle: Klucel (hydroxypropylcellulose) (HPC)): 1 of 3
- T/C [2]: 130 % of control
- survivor count [2]: 0 of 3
- T/C [3]: 131 % of control
- survivor count [3]: 0 of 3

SMILES: O=NN(CCCl)C(=O)N[C@@H]1CCCC[C@H]1O
- T/C (dose: 3.6 mg/kg/injection, schedule: Q01DX001 (ip), vehicle: saline with Tween-80): 141 % of control
- survivor count (dose: 40.0 mg/kg/injection, schedule: Q01DX001 (ip), vehicle: saline with Tween-80): 9 of 10
- survivor count (dose: 45.0 mg/kg/injection, schedule: Q01DX001 (ip), vehicle: saline with Tween-80): 9 of 10
- survivor count (dose: 60.0 mg/kg/injection, schedule: Q01DX001 (ip), vehicle: saline with Tween-80): 7 of 10
- survivor count (dose: 90.0 mg/kg/injection, schedule: Q01DX001 (ip), vehicle: saline with Tween-80): 8 of 10
- survivor count (dose: 133.0 mg/kg/injection, schedule: Q01DX001 (ip), vehicle: saline with Tween-80): 6 of 10
- survivor count (dose: 200.0 mg/kg/injection, schedule: Q01DX001 (ip), vehicle: saline with Tween-80): 0 of 10

SMILES: OC1C2CCN(CC2)C1CNC12CC3CC(CC(C3)C1)C2 (stereo not given)
- survivor count [4]: 0 of 6

SMILES: NC(=O)c1ccc(F)cc1
- survivor count (dose: 50.0 mg/kg/injection, schedule: Q01DX001 (ip), vehicle: carboxymethylcellulose (CMC)): 4 of 4

SMILES: COC(=O)C1CC23C=CCN4CC(C2C)C2(c5ccccc5NC12)C43 (stereo not given)
- survivor count [5]: 0 of 6

SMILES: O=C(CCN1CC1)Nc1ccccc1
- survivor count [6]: 4 of 6
- survivor count (dose: 200.0 mg/kg/injection, schedule: Q04DX003 (ip), vehicle: saline): 5 of 6
- survivor count [4]: 1 of 6

SMILES: O=[N+]([O-])c1ccc(O)c(/C=N/Nc2c3ccccc3nc3ccccc23)c1
- survivor count (dose: 100.0 mg/kg/injection, schedule: Q01DX001 (ip), vehicle: saline): 4 of 4
- survivor count [5]: 4 of 4
- survivor count [7]: 3 of 4

SMILES: O=CC(=O)c1ccccc1
- survivor count (dose: 12.5 mg/kg/injection, schedule: Q01DX009 (ip), vehicle: saline): 6 of 6
- survivor count [6]: 2 of 6
- survivor count (dose: 200.0 mg/kg/injection, schedule: Q01DX009 (ip), vehicle: Klucel (hydroxypropylcellulose) (HPC)): 0 of 6
- survivor count (dose: 200.0 mg/kg/injection, schedule: Q01DX009 (ip), vehicle: saline with Tween-80): 0 of 6
- survivor count [1]: 0 of 6
- survivor count [8]: 0 of 6

SMILES: O=C(C[N+]12CC=C(CO)C1C(O)CC2)c1ccc(Br)cc1 (stereo not given)
- survivor count [7]: 3 of 6

SMILES: CCC(CC)(Cc1ccccc1)C(=O)NC(=O)NOC
- survivor count (dose: 50.0 mg/kg/injection, schedule: Q01DX Z (ip), vehicle: methylcellulose (MC)): 5 of 6

SMILES: NC(N)=N/N=C/c1cccc(Cl)c1Cl
- survivor count (dose: 62.5 mg/kg/injection, schedule: Q01DX Z (ip), vehicle: saline): 3 of 6
- survivor count (dose: 125.0 mg/kg/injection, schedule: Q01DX Z (ip), vehicle: saline): 3 of 6
- survivor count (dose: 250.0 mg/kg/injection, schedule: Q01DX Z (ip), vehicle: saline): 0 of 6
- survivor count (dose: 500.0 mg/kg/injection, schedule: Q01DX Z (ip), vehicle: saline): 0 of 6

SMILES: Nc1ccc(OCCCOc2ccccc2)cc1
- survivor count [8]: 1 of 6

SMILES: Sc1ccccc1.[Pb]
- survivor count (dose: 150.0 mg/kg/injection, schedule: Q01DX009 (ip), vehicle: Klucel (hydroxypropylcellulose) (HPC)): 6 of 6

SMILES: C/C(=N\O)c1ccc[n+](Cc2ccc(C)cc2)c1
- survivor count (dose: 37.5 mg/kg/injection, schedule: Q01DX001 (ip), vehicle: other): 2 of 6
- survivor count (dose: 75.0 mg/kg/injection, schedule: Q01DX001 (ip), vehicle: other): 0 of 6
- survivor count (dose: 150.0 mg/kg/injection, schedule: Q01DX001 (ip), vehicle: other): 0 of 6
- survivor count (dose: 300.0 mg/kg/injection, schedule: Q01DX001 (ip), vehicle: other): 0 of 6
